Screening data

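Malaria parasite (P. falciparum) lines kept in red blood cells; parasite DNA is measured by SYBR Green fluorescence after lysis, 72 h after compound addition. Each compound was titrated across a series from about 0.000037 to 29 µM. The number is the fitted AC50, the concentration giving a half-maximal change in signal; a lower value means higher potency, whether the curve shows a decrease or an increase. Calls follow the curve class and fit quality: every row here is inconclusive, covering signal-raising curves and weak, poorly fitted, partial or highest-dose-only inhibition curves.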

Values are in µM. Every entry below has the call inconclusive. Only part of the assay is shown, chiefly results filed as inconclusive. Potencies fitted to partial, single-point or poorly fitting curves are rough. The first word of each remark tells which way the curve ran; it can be opposite to the aim of the assay.

| # | compound | setting | fitted potency (µM) | curve |
|---|---|---|---|---|
| 1 | `COc1ccc2cc([C@H](C)C(=O)O)ccc2c1` | P93_24 | 1.585 | inhibitor, single point |
| 2 | `COc1ccc2cc([C@H](C)C(=O)O)ccc2c1` | CP237 | 3.981 | inhibitor, single point |
| 3 | `COc1ccc2cc([C@H](C)C(=O)O)ccc2c1` | CP335 | 9.074 | inhibitor, partial curve, poor fit |
| 4 | `COc1ccc2cc([C@H](C)C(=O)O)ccc2c1` | 3D7 | 10 | inhibitor, single point |
| 5 | `COc1ccc2cc([C@H](C)C(=O)O)ccc2c1` | CP286 | 8.912 | inhibitor, single point |
| 6 | `CN1CCN(c2c(F)cc3c(=O)c(C(=O)O)cn4c3c2OCN4C)CC1` | CP262 | 0.1069 | activator, full curve, poor fit |
| 7 | `CN1CCN(c2c(F)cc3c(=O)c(C(=O)O)cn4c3c2OCN4C)CC1` | W2 | 1.51 | inhibitor, single point |
| 8 | `CCC(C(=O)NC(N)=O)c1ccccc1` (stereo not drawn) | CP260 | 15.85 | inhibitor, single point |
| 9 | `CCCCC(=O)O[C@]1(C(=O)CO)CCC2C3CCC4=CC(=O)CCC4(C)C3C(O)CC21C` (stereo partly drawn) | ICS | 10 | inhibitor, single point |
| 10 | `CCCCC(=O)O[C@]1(C(=O)CO)CCC2C3CCC4=CC(=O)CCC4(C)C3C(O)CC21C` (stereo partly drawn) | CP260 | 12.59 | inhibitor, single point |
| 11 | `CCCCC(=O)O[C@]1(C(=O)CO)CCC2C3CCC4=CC(=O)CCC4(C)C3C(O)CC21C` (stereo partly drawn) | W2 | 19.01 | inhibitor, single point |
| 12 | `CCCCC(=O)O[C@]1(C(=O)CO)CCC2C3CCC4=CC(=O)CCC4(C)C3C(O)CC21C` (stereo partly drawn) | Dd2 | 12.59 | inhibitor, partial curve, poor fit |
| 13 | `COCCCOc1ccnc(CS(=O)c2nc3ccccc3[nH]2)c1C` (stereo not drawn) | CP297 | 4.776 | inhibitor, partial curve |
| 14 | `COCCCOc1ccnc(CS(=O)c2nc3ccccc3[nH]2)c1C` (stereo not drawn) | CP237 | 12.59 | inhibitor, partial curve, poor fit |
| 15 | `COCCCOc1ccnc(CS(=O)c2nc3ccccc3[nH]2)c1C` (stereo not drawn) | CP269 | 19.01 | inhibitor, partial curve, poor fit |
| 16 | `COCCCOc1ccnc(CS(=O)c2nc3ccccc3[nH]2)c1C` (stereo not drawn) | CP247 | 12.59 | inhibitor, single point |
| 17 | `COCCCOc1ccnc(CS(=O)c2nc3ccccc3[nH]2)c1C` (stereo not drawn) | DIV14 | 12 | inhibitor, single point |
| 18 | `COCCCOc1ccnc(CS(=O)c2nc3ccccc3[nH]2)c1C` (stereo not drawn) | CP260 | 11.22 | inhibitor, single point |
| 19 | `COCCCOc1ccnc(CS(=O)c2nc3ccccc3[nH]2)c1C` (stereo not drawn) | Dd2 | 14.13 | inhibitor, partial curve |
| 20 | `COCCCOc1ccnc(CS(=O)c2nc3ccccc3[nH]2)c1C` (stereo not drawn) | CP194 | 15.1 | inhibitor, single point |
| 21 | `COCCCOc1ccnc(CS(=O)c2nc3ccccc3[nH]2)c1C` (stereo not drawn) | DIV17 | 16.94 | inhibitor, single point |
| 22 | `COCCCOc1ccnc(CS(=O)c2nc3ccccc3[nH]2)c1C` (stereo not drawn) | CP191 | 11.22 | inhibitor, partial curve |
| 23 | `NC(=O)c1ncn(C2OC(CO)C(O)C2O)c1N` (stereo not drawn) | CP335 | 4.256 | inhibitor, partial curve, poor fit |
| 24 | `CCN(CC)CCOc1ccc(C(O)(Cc2ccc(Cl)cc2)c2ccc(C)cc2)cc1` (stereo not drawn) | ECU | 17.78 | inhibitor, single point |
| 25 | `CCN(CC)CCOc1ccc(C(O)(Cc2ccc(Cl)cc2)c2ccc(C)cc2)cc1` (stereo not drawn) | CP265 | 14.13 | inhibitor, single point |
| 26 | `CCN(CC)CCOc1ccc(C(O)(Cc2ccc(Cl)cc2)c2ccc(C)cc2)cc1` (stereo not drawn) | DIV30 | 19.01 | inhibitor, single point |
| 27 | `CCN(CC)CCOc1ccc(C(O)(Cc2ccc(Cl)cc2)c2ccc(C)cc2)cc1` (stereo not drawn) | JCK | 17.78 | inhibitor, single point |

Some entries from above, unchanged:

For COCCCOc1ccnc(CS(=O)c2nc3ccccc3[nH]2)c1C (stereo not drawn) [CP297] the result was fitted potency 4.776 µM (inhibitor, partial curve).
For CN1CCN(c2c(F)cc3c(=O)c(C(=O)O)cn4c3c2OCN4C)CC1 [W2] the result was fitted potency 1.51 µM (inhibitor, single point).

Source: PubChem BioAssay AID504749 (NCATS, 2011).